This passage reports binding results from paper PMC12192704.

Sequences of proteins named here, by UniProt entry; tags and fusion partners are left off. A change or cut given only in a name is not applied to a line headed by its entry.
UniProt Q9NUM4: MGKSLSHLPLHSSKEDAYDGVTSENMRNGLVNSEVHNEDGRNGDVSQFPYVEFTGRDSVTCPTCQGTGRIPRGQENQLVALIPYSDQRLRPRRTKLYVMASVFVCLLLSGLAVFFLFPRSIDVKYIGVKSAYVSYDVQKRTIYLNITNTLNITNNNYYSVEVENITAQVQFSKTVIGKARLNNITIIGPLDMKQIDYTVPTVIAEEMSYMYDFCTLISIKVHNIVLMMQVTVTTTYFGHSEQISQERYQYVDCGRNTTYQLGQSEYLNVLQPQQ
UniProt P19634: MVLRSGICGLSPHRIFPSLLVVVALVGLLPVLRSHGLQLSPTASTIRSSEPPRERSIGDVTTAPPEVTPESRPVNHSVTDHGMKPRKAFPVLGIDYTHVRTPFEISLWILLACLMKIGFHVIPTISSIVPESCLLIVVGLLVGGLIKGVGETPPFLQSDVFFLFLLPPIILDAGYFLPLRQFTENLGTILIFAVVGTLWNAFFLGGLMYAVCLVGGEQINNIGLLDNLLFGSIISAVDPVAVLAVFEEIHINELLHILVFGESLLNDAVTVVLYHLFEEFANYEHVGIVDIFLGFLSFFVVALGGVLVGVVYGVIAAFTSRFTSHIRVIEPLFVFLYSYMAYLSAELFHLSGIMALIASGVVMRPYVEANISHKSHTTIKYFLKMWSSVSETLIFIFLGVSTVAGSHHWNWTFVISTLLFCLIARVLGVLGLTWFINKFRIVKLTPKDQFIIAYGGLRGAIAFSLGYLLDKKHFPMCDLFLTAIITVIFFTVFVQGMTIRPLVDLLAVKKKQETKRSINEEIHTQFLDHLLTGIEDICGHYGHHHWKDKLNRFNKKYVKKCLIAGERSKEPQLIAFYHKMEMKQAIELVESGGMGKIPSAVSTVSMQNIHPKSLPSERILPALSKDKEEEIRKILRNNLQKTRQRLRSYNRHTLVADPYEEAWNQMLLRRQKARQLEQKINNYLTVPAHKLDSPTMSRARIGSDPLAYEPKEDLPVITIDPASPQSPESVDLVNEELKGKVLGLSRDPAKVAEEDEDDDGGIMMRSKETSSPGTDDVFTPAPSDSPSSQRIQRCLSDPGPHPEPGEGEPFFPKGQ

These are yes or no findings as the source states them, for the method shown. In cells and extracts the contact can be indirect. A result given as binding can be weak or reduced; the word gives no strength.

The target in test [1] is GST-TMEM106B fusion protein (human) (UniProt Q9NUM4). In words: pull-down; purified GST-TMEM106B as bait; fragments and mutants of GFP-NHE1 as prey, Western blot; only the target purified. Background: A western blot detects proteins with antibodies after separation by electrophoresis.
For test [2], the target named is GST-NHE1 fusion protein (human) (UniProt P19634). Briefly: pull-down; purified GST-NHE1 as bait; GFP-TMEM106B, its fragments and mutants as prey, Western blot; only the target purified.

For the substance NHE1-H540A (from UniProt P19634-1), the binding entry in test [1] is recorded as “binds”. Consider TMEM106B L116A (from UniProt Q9NUM4), for which the binding result in test [2] is “binds”. Consider NHE1 G539A (from UniProt P19634-1), for which the binding result in test [1] is “binds weakly”. As to “TMEM106B-LYVMA96-100AAAAA (from UniProt Q9NUM4)”, the binding entry in test [2] is “binds”. Turning to NHE1 I537A (from UniProt P19634-1), the binding result in test [1] is recorded as “binds weakly”. Regarding “TMEM106B-SVFVC101-105AAAAA (from UniProt Q9NUM4)”, the binding result in test [2] is recorded as “binds”.

On to TMEM106B F114A (from UniProt Q9NUM4), for which, in test [2], the binding result is on record as “binds”. For TMEM106B V113A (from UniProt Q9NUM4), the binding entry in test [2] is “binds”. Regarding “TMEM106B-LLLSG106-110AAAAA (from UniProt Q9NUM4)”, the binding result in test [2] is “binds”. On to “TMEM106B-LAVFFLF111-117AAAAAAA (from UniProt Q9NUM4)”, for which the binding entry in test [2] is listed as “no binding”. For the substance TMEM106B L111A (from UniProt Q9NUM4), in test [2], the binding result is reported as “binds”. Consider NHE1 C538A (from UniProt P19634-1), for which the binding entry in test [1] was “binds weakly”.
